Results: PubChem BioAssay AID2685 (National Center for Advancing Translational Sciences (NCATS), 2010)
The list shows a part of the results. These are further read-outs of the screen, such as a control signal, another cell line or another target. No call is given for them. Compounds called inactive in the main read-out are mostly missing here. Potencies come from curve fits of mixed quality, noted in brackets.

Test: qHTS Assay for Lipid Storage Modulators in Drosophila S3 Cells;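 as to cell number change: cells counted by Cell Tracker Red CMTPX staining in the red channel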
Conditions: BODIPY lipid droplet fluorescence, 18-24 h; for cell number change: measured here: cell count max response, cells fed with added oleic acid
Procedure, shortened: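 Drosophila S3 cells loaded with oleic acid (400 uM, as added) and compounds at several concentrations; lipid droplets imaged by 488-nm laser-scanning cytometry, 500–530 nm intensity and object ratio to cell channel. Percent activity normalized to 20 uM Triacsin C.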

[1] = measured here: lipid fluorescence (Fed channel) AC50, cells fed with added oleic acid
[2] = measured here: cell number channel AC50, cells fed with added oleic acid

Row | Compound | cell number change [%] | AC50 [1] | AC50 [2]
1 | Cc1nnsc1C(=O)N/N=C/c1ccccc1Cl | 22.8 | 0.82 µM [rising, full curve, poor fit] | –
2 | CSCc1cc(N2CCOCC2)nc(SCc2ccc(Cl)c(Cl)c2)n1 | -31.8 | – | 14.6 µM [falling, single point]
3 | C(=N\Nc1ccccn1)/c1c[nH]c2ccccc12 | 4.21 | – | 1.84 µM [rising, single point]
4 | COc1ccc(OC)c(-n2c(-c3ccccc3)n[nH]c2=S)c1 | 15.6 | – | –
5 | CC1CCN(S(=O)(=O)c2ccc(C(=O)Nc3nnc(-c4ccncc4)o3)cc2)CC1 | 15.3 | – | 3.66 µM [rising, partial curve]
6 | Cc1cc(OCC(=O)OCC(=O)N2CCc3ccccc32)ccc1Cl | -14.2 | – | –
7 | Cc1sc(NC(=O)CCC(=O)O)c(C#N)c1C | -3.09 | 0.517 µM [falling, partial curve, poor fit] | 0.58 µM [falling, single point]
8 | Cc1cccc(OCCC(=O)Nc2ccc(S(=O)(=O)N3CCCC3)cc2)c1 | -35.7 | 23.1 µM [falling, partial curve, poor fit] | 23.1 µM [falling, single point]
9 | O=S(=O)(c1ccc(Cl)cc1)c1nc(-c2ccccc2F)oc1NCCN1CCOCC1 | -5.2 | 29.1 µM [rising, single point] | –
10 | COc1ccc(CCNC(=O)Cn2nnc(-c3cccc(OC)c3OC)n2)cc1OC | -14.2 | – | –
11 | COc1ccc(F)cc1S(=O)(=O)NCC(c1ccco1)N1CCc2ccccc2C1 (stereo not drawn) | 21.2 | – | –
12 | COc1ccc(OCCSc2ncccn2)cc1 | – | 6.51 µM [falling, partial curve] | –
13 | C#CC[N+](C)(C)CCN1C(=O)C2C(c3ccccc3)C=CC(c3ccccc3)C2C1=O (stereo not drawn) | – | 0.651 µM [rising, single point] | –
14 | COc1ccc(CCNC(=O)CNC(=O)c2ccco2)cc1 | 5.86 | 0.164 µM [rising, full curve, poor fit] | –
15 | O=C(NCc1ccco1)/C(=C/c1cccc([N+](=O)[O-])c1)NC(=O)c1ccco1 | 25 | 16.4 µM [rising, partial curve] | –
16 | O=C(Cc1cccs1)Nc1ccc([N+](=O)[O-])cc1 | -26.4 | 29.1 µM [rising, single point] | –
17 | CCOC(=O)C1(CCOC)CCN(Cc2cc3ccccc3s2)CC1 | 5.84 | 29.1 µM [rising, single point] | –
18 | O=S(=O)(c1cccs1)N1CCN(c2ccnc3cc(Cl)ccc23)CC1 | 17.3 | – | 0.411 µM [rising, full curve, poor fit]
19 | CCOc1cc(C(=O)OCC(=O)NCc2ccco2)cc(OCC)c1OCC | -18.3 | – | –
20 | CC(=O)c1ccccc1N(C(=O)Cn1nnc2ccccc21)C(C(=O)NCC1CCCO1)c1ccc(N2CCOCC2)cc1 (stereo not drawn) | -37.3 | 8.2 µM [falling, partial curve] | 14.6 µM [falling, partial curve, poor fit]
21 | O=Cc1cc(-c2ccccc2)[nH]c1-c1ccccc1 | 14.7 | – | –
22 | COc1cccc(/C=N/n2c(N)c(S(=O)(=O)c3cccs3)c3nc4ccccc4nc32)c1OC | 4.03 | 1.64 µM [falling, full curve] | 6.51 µM [falling, single point]
23 | CC1CCN(c2ccc(C(=O)Nc3nnc(C4CC4)s3)cc2[N+](=O)[O-])CC1 | -64.6 | – | 25.9 µM [falling, partial curve, poor fit]
24 | CCc1ccc(NC(=O)c2ccccc2NC(=O)C2CCCO2)cc1 (stereo not drawn) | 68.3 | 2.31 µM [rising, full curve] | 1.3 µM [rising, full curve]
25 | Cc1cc(C)c(C)c(S(=O)(=O)Nc2ccccc2C(=O)O)c1C | -69.4 | 3.66 µM [falling, full curve] | 4.61 µM [falling, full curve]
26 | Cc1c(NC(=O)CSc2ncn[nH]2)c(=O)n(-c2ccccc2)n1C | 41.2 | 2.31 µM [rising, partial curve, poor fit] | 14.6 µM [rising, partial curve, poor fit]
27 | Cc1ccc(Cl)c2c1NC(=O)C2(O)CC(=O)c1ccc(Br)cc1 (stereo not drawn) | -36.9 | – | –
28 | CN1CCN(C(=S)NC(=O)/C=C/c2cccc3ccccc23)CC1 | -3 | – | –
29 | O=C(CCCn1cnc([N+](=O)[O-])n1)Nc1cccc2ccccc12 | -30.3 | 0.58 µM [falling, full curve, poor fit] | 7.31 µM [falling, partial curve]
30 | O=S(=O)(NCCc1ccccc1)c1ccc(S(=O)(=O)N2CCCCC2)cc1 | 5.73 | 0.103 µM [falling, full curve, poor fit] | –

8 compounds from above, arranged by number of heavy atoms, falling:
Row | Compound | cell number change [%] | AC50 [1] | AC50 [2]
20 | CC(=O)c1ccccc1N(C(=O)Cn1nnc2ccccc21)C(C(=O)NCC1CCCO1)c1ccc(N2CCOCC2)cc1 (stereo not drawn) | -37.3 | 8.2 µM [falling, partial curve] | 14.6 µM [falling, partial curve, poor fit]
11 | COc1ccc(F)cc1S(=O)(=O)NCC(c1ccco1)N1CCc2ccccc2C1 (stereo not drawn) | 21.2 | – | –
17 | CCOC(=O)C1(CCOC)CCN(Cc2cc3ccccc3s2)CC1 | 5.84 | 29.1 µM [rising, single point] | –
29 | O=C(CCCn1cnc([N+](=O)[O-])n1)Nc1cccc2ccccc12 | -30.3 | 0.58 µM [falling, full curve, poor fit] | 7.31 µM [falling, partial curve]
14 | COc1ccc(CCNC(=O)CNC(=O)c2ccco2)cc1 | 5.86 | 0.164 µM [rising, full curve, poor fit] | –
21 | O=Cc1cc(-c2ccccc2)[nH]c1-c1ccccc1 | 14.7 | – | –
1 | Cc1nnsc1C(=O)N/N=C/c1ccccc1Cl | 22.8 | 0.82 µM [rising, full curve, poor fit] | –
7 | Cc1sc(NC(=O)CCC(=O)O)c(C#N)c1C | -3.09 | 0.517 µM [falling, partial curve, poor fit] | 0.58 µM [falling, single point]
